In PubChem BioAssay AID248 (DTP/NCI, 2004):
The list shows only some results of the screen, not a fair sample: it gathers tests that were run many times, whatever their T/C, doses with no T/C, and many T/C values between a quarter and a half above the control. Further doses and runs are listed elsewhere. T/C is the treated group as % of the vehicle group. Some entries give survivors of the animals treated and no T/C: the source holds a T/C of zero for them, seemingly a mark for toxic or unscored doses. Some doses without a T/C left all or most animals alive at the check, yet need not have been tolerated: survival well below the control is almost never listed, so the zero probably covers shortened survival too. Survivors were counted at the toxicity check, usually on the fifth day, unless a day is given; later deaths do not show. Schedules are NCI's codes, read here as Q, the interval in days (D) or hours (H), X, the number of doses. Some molecules as drawn cover several salts, stereoisomers or complexes of the source; a dose is that of the sample tested. For survival time, the PubChem record calls one and a half times the control and up active, and a quarter to a half above the control has no call in these data; cut-offs in other NCI protocols can differ. Some T/C values are followed by the survivors on the day toxicity was checked, most often the fifth; where none is given, no animal had died by that day. Some entries hold several experiments; their values stand side by side, smallest first.

System: L1210 leukemia ip in BDF1 mice, survival T/C
Assay: NCI In Vivo Anticancer Drug Screen. Data for tumor model L1210 Leukemia (intraperitoneal) in B6D2F1 (BDF1) mice
Conditions: T/C endpoint: mean survival time, higher T/C = longer survival
[1] = dose: 75.0 mg/kg/injection, schedule: Q01DX001 (ip), vehicle: other
[2] = dose: 200.0 mg/kg/injection, schedule: Q01DX009 (ip), vehicle: Klucel (hydroxypropylcellulose) (HPC)
[3] = dose: 150.0 mg/kg/injection, schedule: Q01DX001 (ip), vehicle: other
[4] = dose: 300.0 mg/kg/injection, schedule: Q01DX001 (ip), vehicle: other
[5] = dose: 400.0 mg/kg/injection, schedule: Q04DX003 (ip), vehicle: Klucel (hydroxypropylcellulose) (HPC)

**Q.** `O=[N+]([O-])c1ccc(Cl)cc1/C=N\N=C1c2ccccc2-c2ccccc21` was tested. Which survivor count [1] did it give?
**A.** Its survivor count is 6 of 6.

**Q.** `O=C1C=CC(=O)N1CN1CCOCC1` was tested. Which survivor count (dose: 100.0 mg/kg/injection, schedule: Q04DX003 (ip), vehicle: acetone) did it give?
**A.** Its survivor count is 0 of 6.

**Q.** And the survivor count (dose: 200.0 mg/kg/injection, schedule: Q04DX003 (ip), vehicle: acetone)?
**A.** The survivor count was 0 of 6.

**Q.** And the survivor count (dose: 400.0 mg/kg/injection, schedule: Q04DX003 (ip), vehicle: acetone)?
**A.** Its survivor count is 0 of 6.

**Q.** Which T/C (dose: 400.0 mg/kg/injection, schedule: Q01DX009 (ip), vehicle: water) does the source give for `CC(=O)NNC(=O)c1ccncc1` here?
**A.** The T/C was 131 and 132 % of control [5 of 6 alive].

**Q.** With `CC1(C)N=C(N)N=C(N)N1c1ccc(CCCCc2ccccc2Cl)cc1` as the molecule, how does the survivor count (dose: 50.0 mg/kg/injection, schedule: Q01DX001 (ip), vehicle: Klucel (hydroxypropylcellulose) (HPC)) read?
**A.** The survivor count was 3 of 6.

**Q.** And the survivor count (dose: 100.0 mg/kg/injection, schedule: Q01DX001 (ip), vehicle: Klucel (hydroxypropylcellulose) (HPC))?
**A.** The survivor count was 0 of 6.

**Q.** And the survivor count (dose: 100.0 mg/kg/injection, schedule: Q04DX003 (ip), vehicle: saline with Tween-80)?
**A.** Its survivor count is 1 of 6.

**Q.** What about the survivor count (dose: 200.0 mg/kg/injection, schedule: Q01DX001 (ip), vehicle: Klucel (hydroxypropylcellulose) (HPC)) of the same molecule?
**A.** Its survivor count is 1 of 6.

**Q.** What about the survivor count (dose: 200.0 mg/kg/injection, schedule: Q04DX003 (ip), vehicle: saline with Tween-80) of the same molecule?
**A.** The survivor count was 0 of 6.

**Q.** What about the survivor count (dose: 400.0 mg/kg/injection, schedule: Q01DX001 (ip), vehicle: Klucel (hydroxypropylcellulose) (HPC)) of the same molecule?
**A.** Its survivor count is 0 of 6.

**Q.** And the survivor count (dose: 400.0 mg/kg/injection, schedule: Q04DX003 (ip), vehicle: saline with Tween-80)?
**A.** The survivor count was 1 of 6.

**Q.** With `CCCCCCCCC(O)CC` (stereo not drawn) as the molecule, how does the survivor count [2] read?
**A.** Its survivor count is 4 of 6.

**Q.** Which survivor count [3] does the source give for `CCCC(CNC1CCCCC1)OC(=O)c1ccc(N)cc1` (stereo not drawn) here?
**A.** Its survivor count is 3 of 6.

**Q.** And the survivor count [4]?
**A.** The survivor count was 0 of 6.

**Q.** What does the source list for `CCOc1ccc(CC(=O)Nc2cc([N+](=O)[O-])ccc2NCCN(CC)CC)cc1`?
**A.** survivor count (dose: 200.0 mg/kg/injection, schedule: Q04DX003 (ip), vehicle: other): 2 of 6; survivor count (dose: 400.0 mg/kg/injection, schedule: Q04DX003 (ip), vehicle: other): 1 of 6

**Q.** `CCSP(N)(=O)c1ccccc1` (stereo not drawn) was tested. Which survivor count (dose: 150.0 mg/kg/injection, schedule: Q01DX001 (ip), vehicle: saline) did it give?
**A.** Its survivor count is 0 of 6.

**Q.** What about the survivor count (dose: 300.0 mg/kg/injection, schedule: Q01DX001 (ip), vehicle: saline) of the same molecule?
**A.** The survivor count was 0 of 6.

**Q.** For `C=CCNC(=S)N(C)Cc1ccccc1Cl`, which survivor count (dose: 400.0 mg/kg/injection, schedule: Q01DX009 (ip), vehicle: Klucel (hydroxypropylcellulose) (HPC)) is on record?
**A.** The survivor count was 0 of 6.

**Q.** How did the survivor count (dose: 200.0 mg/kg/injection, schedule: Q01DX009 (ip), vehicle: saline) turn out when `CN(C)/N=C1\CCc2ccccc21` was run?
**A.** The survivor count was 5 of 6.

**Q.** What about the survivor count (dose: 400.0 mg/kg/injection, schedule: Q01DX009 (ip), vehicle: saline) of the same molecule?
**A.** The survivor count was 0 of 6.

**Q.** For `CS(=O)(=O)OCCCCCCCCCOS(C)(=O)=O`, which survivor count [2] is on record?
**A.** Its survivor count is 2 of 6.

**Q.** What about the survivor count [4] of the same molecule?
**A.** Its survivor count is 0 of 6.

**Q.** `CC(=NC(c1ccccc1)c1ccccc1)N(C)C` was tested. Which survivor count (dose: 200.0 mg/kg/injection, schedule: Q04DX002 (ip), vehicle: saline with Tween-80) did it give?
**A.** Its survivor count is 0 of 3.

**Q.** What about the survivor count (dose: 400.0 mg/kg/injection, schedule: Q04DX002 (ip), vehicle: saline with Tween-80) of the same molecule?
**A.** Its survivor count is 0 of 3.

**Q.** For `CN(C)n1cc(C#N)c(=O)[nH]c1=O`, which survivor count [5] is on record?
**A.** Its survivor count is 4 of 6.

**Q.** For `CC1CCC(Oc2nc3c(c(=O)n(C)c(=O)n3C)n2C)CC1` (stereo not drawn), which survivor count (dose: 400.0 mg/kg/injection, schedule: Q01DX001 (ip), vehicle: other) is on record?
**A.** The survivor count was 2 of 4.

**Q.** With `O=C(O)c1cocc1C(=O)O` as the molecule, how does the survivor count (dose: 400.0 mg/kg/injection, schedule: Q04DX002 (ip), vehicle: Klucel (hydroxypropylcellulose) (HPC)) read?
**A.** Its survivor count is 1 of 3.

**Q.** Which results are given for `C(CC1CO1)CC1OC1CC1CO1` (stereo not drawn)?
**A.** T/C (dose: 39.0 mg/kg/injection, schedule: Q01DX009 (ip), vehicle: saline with Tween-80): 125 % of control; T/C (dose: 59.0 mg/kg/injection, schedule: Q01DX009 (ip), vehicle: saline with Tween-80): 138 % of control; T/C (dose: 89.0 mg/kg/injection, schedule: Q01DX009 (ip), vehicle: saline with Tween-80): 149 % of control; T/C (dose: 90.0 mg/kg/injection, schedule: Q01DX009 (ip), vehicle: Klucel (hydroxypropylcellulose) (HPC)): 135 % of control; T/C (dose: 106.0 mg/kg/injection, schedule: Q04DX003 (ip), vehicle: saline): 125 % of control; survivor count (dose: 150.0 mg/kg/injection, schedule: Q01DX009 (ip), vehicle: other): 3 of 6; T/C (dose: 160.0 mg/kg/injection, schedule: Q04DX003 (ip), vehicle: saline): 128 % of control; T/C (dose: 240.0 mg/kg/injection, schedule: Q04DX003 (ip), vehicle: saline): 139 % of control [5 of 6 alive]; survivor count (dose: 320.0 mg/kg/injection, schedule: Q04DX003 (ip), vehicle: saline): 5 of 6; survivor count (dose: 640.0 mg/kg/injection, schedule: Q04DX003 (ip), vehicle: saline): 0 of 6

**Q.** `CCSCCC#N` was tested. Which survivor count (dose: 400.0 mg/kg/injection, schedule: Q04DX002 (ip), vehicle: saline) did it give?
**A.** Its survivor count is 1 of 3.

**Q.** With `O=C(C[n+]1ccccc1Br)c1ccc2ccccc2c1` as the molecule, how does the survivor count [1] read?
**A.** The survivor count was 0 of 6.

**Q.** What about the survivor count [3] of the same molecule?
**A.** The survivor count was 0 of 6.

**Q.** And the survivor count [4]?
**A.** The survivor count was 0 of 6.

**Q.** For `CCC(C)C(C#N)(CCN(CC)CC)c1ccccc1` (stereo not drawn), which survivor count [2] is on record?
**A.** The survivor count was 1 of 6.

**Q.** And the survivor count [5]?
**A.** The survivor count was 0 of 6.

**Q.** `C/C(=N/N(C)C)c1cccc(C(F)(F)F)c1` was tested. Which survivor count (dose: 400.0 mg/kg/injection, schedule: Q04DX003 (ip), vehicle: saline) did it give?
**A.** The survivor count was 0 of 6.

**Q.** With `CCOC(=O)/C=C(\CC(=O)OCC)Nc1ccc(C(=O)c2ccccc2)cc1` as the molecule, how does the survivor count (dose: 100.0 mg/kg/injection, schedule: Q01DX001 (ip), vehicle: saline) read?
**A.** Its survivor count is 6 of 6.

**Q.** And the survivor count (dose: 400.0 mg/kg/injection, schedule: Q01DX001 (ip), vehicle: saline)?
**A.** Its survivor count is 2 of 6.
